According to PubChem BioAssay AID493014 (National Center for Advancing Translational Sciences (NCATS), 2011):
The other results are listed elsewhere or left out. The main result of the screen is listed elsewhere. These columns were measured beside it and carry no call. The list favours compounds with an active or inconclusive main result. The note in brackets gives the kind of curve behind each potency; many fits are weak.

Assay: qHTS Assay to Find Inhibitors of Chronic Active B-Cell Receptor Signaling
Conditions: ABC-DLBCL IkBa-CBG/CBR reporter, luminescence ratio (green luciferase fused to IkBa over red control in TMD8 lymphoma cells), 4 h
Summary of the method: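 Compounds up to 46 uM were incubated four hours with TMD8 cells whose green CBG68 luciferase is fused to IkappaBalpha; red CBR luminescence normalised the signal, and concentration-effect curves were fitted to fusion, red and ratio data.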

[1] = measured here: CBR red luminescence, cell number
[2] = measured here: IkBa-CBG green luminescence

Row | SMILES | AC50 [1] | AC50 [2]
1 | Cc1ccc(N(C)S(=O)(=O)c2cccc(C(=O)Nc3nc4ccccc4[nH]3)c2)cc1 | 18.4 µM [falling, single point] | 
2 | O=C1NC2(CCCCC2)Oc2ccccc21 | 23.1 µM [rising, single point] | 
3 | CCOc1ncccc1C(=O)OCC(=O)Nc1ccc(C(N)=O)cc1 | 28.2 µM [rising, single point] | 
4 | COc1ccc(-c2c[n+]3c(n2-c2ccc(C)cc2)CCCCC3)cc1 |  | 35.5 µM [rising, partial curve, poor fit]
5 | Cc1nc2ccc(NC(=O)c3ccco3)cc2nc1C | 11.2 µM [falling, single point] | 
6 | Cc1ccc(NC(=O)C(=O)NNC(=O)c2ccccc2C)cc1Cl | 11.2 µM [falling, partial curve, poor fit] | 
7 | c1nc(NC2CCCCC2)c2[nH]cnc2n1 | 16.4 µM [falling, partial curve] | 
8 | CCCN(CC#CC(O)(c1ccccc1)c1cccnc1)CCC (stereo unspecified) | 35.5 µM [falling, partial curve, poor fit] | 
9 | CCN(CC)C1CCN(C(=O)c2ccc(OC3CCN(CCc4ccccc4)CC3)cc2)C1 (stereo unspecified) | 35.5 µM [falling, single point] | 
10 | O=c1[nH]c(-c2ccco2)nc2sc3c(c12)CCCC3 | 1.64 µM [rising, full curve, poor fit] | 
11 | COc1ccc(OC)c(C2=NO[C@@H]3C(=O)N(c4cc(Cl)ccc4OC)C(=O)[C@H]23)c1 | 18.4 µM [falling, single point] | 
12 | O=C(CCN1C(=O)CSc2ccccc21)Nc1ccc(OC(F)(F)F)cc1 | 2.06 µM [rising, full curve, poor fit] | 
13 | CCOC(=O)c1c(CSCc2ccccc2)oc2ccc(O)c(CN(C)C)c12 | 4.47 µM [falling, full curve] | 
14 | O=C(NC1C2CC3CC(C2)CC1C3)c1ccc(N2CCNCC2)c([N+](=O)[O-])c1 (stereo unspecified) | 6.31 µM [rising, single point] | 
15 | COc1cccc(C(=O)OCC(=O)c2c(N)n(C)c(=O)n(C)c2=O)c1 | 25.9 µM [falling, partial curve, poor fit] | 
16 | Cc1cccc(NC(=O)NNC(=O)c2nn(C)cc2Br)c1 | 23.1 µM [falling, partial curve, poor fit] | 
17 | CCOC(=O)C1CCN(c2nc3ccccc3nc2C(C#N)C(=O)NCCc2ccccc2)CC1 (stereo unspecified) | 35.5 µM [falling, single point] | 
18 | O=C1C2ON(c3ccc(Cl)cc3)C(c3ccco3)C2C(=O)N1c1ccccc1 (stereo unspecified) | 32.6 µM [falling, partial curve, poor fit] | 
19 | CC(C)NC(=O)Nc1cccc2c1O[C@H](CN(C)C(=O)NC1CCCCC1)[C@@H](C)CN([C@H](C)CO)C2=O | 16.4 µM [rising, single point] | 
20 | CCCc1cc(=O)n2c(nc3ccccc32)[nH]1 | 3.66 µM [falling, partial curve] | 
21 | COc1ccc(OC)c(NC(=O)CSc2ccc(-c3ccco3)nn2)c1 | 0.631 µM [falling, partial curve, poor fit] | 

Row | SMILES | AC50 [1] | AC50 [2]
22 | O=C(Nc1ncn[nH]1)c1cccc(F)c1 | 0.517 µM [rising, full curve, poor fit] | 
23 | CCn1c(SCC(=O)N2CCCCCC2)nc2ccccc2c1=O | 35.5 µM [falling, single point] | 
24 | CC(/C=C1\N=C(SCc2ccccc2)SC1=O)=C\c1ccccc1 | 20.6 µM [rising, partial curve] | 
25 | CC(=O)N1CCN(c2ccccc2NC(=O)COc2ccc(Br)cc2)CC1 | 11.2 µM [falling, partial curve, poor fit] | 
26 | O=C(Nc1nnc(C2CC2)s1)c1cncc(Br)c1 | 11.6 µM [falling, partial curve] | 
27 | CC(C)(C)c1ccc(Cn2nnc3c(=O)[nH]c(C4CCCN(C(=O)c5cccs5)C4)nc32)cc1 (stereo unspecified) | 35.5 µM [falling, single point] | 
28 | Cc1[nH]nc2c1C(C(C)c1ccccc1)C(C#N)=C(N)O2 (stereo unspecified) | 35.5 µM [falling, single point] | 
29 | COc1ccc(C2/C=C\CN(S(=O)(=O)c3ccc(C)cc3)CC(=O)N2Cc2cccc(F)c2)cc1 (stereo unspecified) | 4.61 µM [rising, full curve] | 
30 | COc1cc2c(cc1OC)C(=O)N1[C@H]3c4cc(Cl)ccc4OC[C@@H]3[C@H](c3ccccc3)[C@]1(C)C(=O)N2 | 29.1 µM [falling, single point] | 
31 | COc1ccc2c3c(cccc13)C(=O)N(O)C2=O | 20.6 µM [falling, single point] | 
32 | COc1cc2c(cc1OC)CN(C(=O)Nc1ccccc1Cl)CC2 | 2.82 µM [falling, partial curve, poor fit] | 
33 | NS(=O)(=O)c1ccc(NN=C2CCN(Cc3ccccc3)CC2)c([N+](=O)[O-])c1 | 20 µM [falling, partial curve, poor fit] | 
34 | CC(NC(=O)c1ccccc1NC(=O)CN1CCc2ccccc2C1)c1ccccc1 (stereo unspecified) | 14.1 µM [falling, single point] | 
35 | COc1cccc(C(=O)NCCS(=O)(=O)NCCc2ccc(OC)c(OC)c2)c1 | 29.1 µM [falling, single point] | 
36 | O=C(CSc1nnc(-c2ccc(O)cc2)o1)c1ccc(Br)cc1 | 7.08 µM [falling, partial curve, poor fit] | 
37 | CC1Cc2ccccc2N1c1ncnc2c1nnn2Cc1ccccc1 (stereo unspecified) | 6.31 µM [falling, partial curve, poor fit] | 
38 | COCCSc1ccccc1C(=O)Nc1cc(C)ccn1 | 9.2 µM [rising, partial curve, poor fit] | 
39 | Cc1cc(NC(=O)CN2C(=O)NC(C)(c3ccccc3)C2=O)no1 (stereo unspecified) | 6.51 µM [rising, single point] | 
40 | CN(CCCNC(=O)CSc1cc(=O)n(C)c2cc(Cl)ccc12)Cc1ccccc1 | 35.5 µM [falling, single point] | 
41 | COc1cccc(/C=N/Nc2nc3ccccc3n3cnnc23)c1 | 9.2 µM [falling, partial curve, poor fit] | 
42 | Cn1nc(C(C)(C)C)c([N+](=O)[O-])c1C(N)=O | 11.2 µM [rising, partial curve] | 

Row | SMILES | AC50 [1] | AC50 [2]
43 | CC(C)(Oc1ccc(Cl)cc1)C(=O)N1CCN(c2ccccn2)CC1 | 29.1 µM [falling, single point] | 20.6 µM [rising, single point]
44 | Cn1nc(C(C)(C)C)cc1NC(=O)Nc1ccc(F)cc1F | 2 µM [falling, partial curve] | 
45 | FC(F)(F)c1cc(NCc2cccs2)n2ncnc2n1 | 25.9 µM [rising, single point] | 0.206 µM [rising, full curve, poor fit]
46 | CC1CN(Cc2csc(-c3ccc(Cl)cc3)n2)CC(C)O1 (stereo unspecified) | 4.47 µM [rising, partial curve] | 
47 | O=C(CSc1cnc2ccccc2n1)NC1CCCC1 | 5.17 µM [falling, partial curve, poor fit] | 
48 | O=C(NCc1ccccc1Cl)C1CCC(CNc2c(N3CCOCC3)c(=O)c2=O)CC1 (stereo unspecified) | 12.6 µM [rising, single point] | 
49 | Cc1cc(-c2ccccc2)nc2cc(C(=O)NCc3ccco3)nn12 | 35.5 µM [falling, single point] | 
50 | COc1cc(CCC(=O)OCC(=O)Nc2nc(C)c(Cl)cc2Cl)cc(OC)c1OC | 29.1 µM [rising, partial curve, poor fit] | 
51 | CCn1c(SCC(=O)NCc2ccc3c(c2)OCO3)nc2c(c1=O)SCC2 | 12.6 µM [falling, single point] | 
52 | COC(=O)c1ccc(NC(=O)CC(=O)Nc2ccc(C(=O)OC)cc2)cc1 | 14.1 µM [rising, partial curve, poor fit] | 
53 | CCOC(=O)c1c(N)sc(-c2ccccc2)c1C | 8.2 µM [rising, partial curve] | 29.1 µM [falling, single point]
54 | CCC(=O)NCCc1nc2cc(NC(=O)c3ccco3)ccc2n1C | 4.47 µM [falling, full curve] | 
55 | Brc1ccc(CN2CCN(Cc3c[nH]c4ccccc34)CC2)cc1 | 2.51 µM [rising, single point] | 
56 | O=[N+]([O-])c1ccc(/C=N/NC(=S)Nc2ccc(Cl)cc2Cl)s1 | 3.16 µM [rising, full curve, poor fit] | 
57 | COCCCNCCOCCOc1ccc(Cl)cc1C(C)(C)C | 14.6 µM [falling, partial curve, poor fit] | 
58 | COc1ccc(Cl)cc1C(=O)NNC(=S)NC1CCCC1 |  | 12.6 µM [falling, partial curve, poor fit]
59 | COC(=O)c1cc(NCc2c(F)cccc2Cl)ccc1N1CCOCC1 | 7.08 µM [falling, full curve] | 
60 | O=C(C=C1CCN(c2ncc(C(F)(F)F)cc2Cl)CC1)NNC(=O)Nc1ccc(Cl)cc1 | 3.98 µM [rising, partial curve, poor fit] | 
61 | COc1ccc(OC)c(-c2cn(S(=O)(=O)c3ccccc3)nc2N)c1 | 1.84 µM [falling, partial curve, poor fit] | 
62 | CCC(C)(C(=O)NC1CCCC1)N(C(=O)c1cnccn1)c1c(C)n(C)n(-c2ccccc2)c1=O (stereo unspecified) | 6.51 µM [rising, single point] | 
63 | CC(=O)c1ccc(N2CCN(C(=O)C(=O)c3c(C)[nH]c4ccccc34)CC2)cc1 | 0.631 µM [rising, full curve, poor fit] | 

In the list so far, three contain a CF3 group.
Row | SMILES | AC50 [1] | AC50 [2]
12 | O=C(CCN1C(=O)CSc2ccccc21)Nc1ccc(OC(F)(F)F)cc1 | 2.06 µM [rising, full curve, poor fit] | 
45 | FC(F)(F)c1cc(NCc2cccs2)n2ncnc2n1 | 25.9 µM [rising, single point] | 0.206 µM [rising, full curve, poor fit]
60 | O=C(C=C1CCN(c2ncc(C(F)(F)F)cc2Cl)CC1)NNC(=O)Nc1ccc(Cl)cc1 | 3.98 µM [rising, partial curve, poor fit] | 
